In publication PMC5705137:
These are yes or no findings as the source states them, for the method shown. For some assays here: Binding seen in cells or lysates may run through a third protein. Some results given as binding are weak or reduced against the parent protein; the word gives no strength. Tags and fused reporters may be left off the sequences shown. Values belong to the binder of their own block, whether it stands above or below them.

Key:
[1] = molecular target: T1, C-terminal 3xHA-tagged CERK1 (Arabidopsis) (UniProt A8R7E6); assay: co-IP; transient co-expression in N. benthamiana leaves; extract with 2% IGEPAL CA-630, 150 mM NaCl, pH 7.5; anti-HA magnetic beads; immunoblots
T1 sequence: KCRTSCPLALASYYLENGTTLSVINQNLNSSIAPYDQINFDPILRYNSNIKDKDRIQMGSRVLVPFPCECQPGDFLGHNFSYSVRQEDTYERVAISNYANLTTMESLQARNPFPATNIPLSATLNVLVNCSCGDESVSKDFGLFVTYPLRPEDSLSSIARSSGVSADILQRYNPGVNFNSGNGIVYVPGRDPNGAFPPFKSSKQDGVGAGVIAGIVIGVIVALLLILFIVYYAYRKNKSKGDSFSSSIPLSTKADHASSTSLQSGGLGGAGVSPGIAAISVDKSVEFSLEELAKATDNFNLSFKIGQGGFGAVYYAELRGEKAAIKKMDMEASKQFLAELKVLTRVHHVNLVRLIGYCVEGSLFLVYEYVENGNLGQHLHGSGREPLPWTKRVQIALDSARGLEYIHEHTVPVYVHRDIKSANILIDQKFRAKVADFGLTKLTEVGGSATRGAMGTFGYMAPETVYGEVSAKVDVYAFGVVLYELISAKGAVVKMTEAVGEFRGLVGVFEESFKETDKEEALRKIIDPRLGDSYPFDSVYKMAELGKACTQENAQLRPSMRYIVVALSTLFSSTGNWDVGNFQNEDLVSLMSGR

[2] = molecular target: T2, PBL27 (yeast two-hybrid fusion) (Arabidopsis) (UniProt Q1PDV6); assay: two-hybrid; yeast; pBTM116 (bait, LexA) and pVP16 (prey) vectors; growth on plates lacking uracil, leucine, tryptophan and histidine with 2 mM 3-aminotriazole
T2 sequence: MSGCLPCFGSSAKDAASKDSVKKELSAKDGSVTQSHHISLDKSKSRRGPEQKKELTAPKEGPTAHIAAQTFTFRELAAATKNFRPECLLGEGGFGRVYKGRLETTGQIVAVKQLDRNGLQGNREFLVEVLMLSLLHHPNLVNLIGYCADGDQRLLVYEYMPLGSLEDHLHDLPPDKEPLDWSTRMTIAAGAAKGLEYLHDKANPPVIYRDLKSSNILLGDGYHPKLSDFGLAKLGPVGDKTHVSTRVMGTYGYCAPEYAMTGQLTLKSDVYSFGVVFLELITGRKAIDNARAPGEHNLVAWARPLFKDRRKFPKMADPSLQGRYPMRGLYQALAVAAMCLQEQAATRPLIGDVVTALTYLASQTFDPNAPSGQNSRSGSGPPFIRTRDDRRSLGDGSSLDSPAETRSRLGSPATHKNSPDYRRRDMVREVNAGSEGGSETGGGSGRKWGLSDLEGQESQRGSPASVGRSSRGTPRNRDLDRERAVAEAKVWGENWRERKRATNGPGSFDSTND

binding [1]: binds
B1: N-terminal GFP-fused PUB12 (enzyme, UniProt Q9ZV31 1-654)
chain: MAKSEKHKLAQTLIDSINEIASISDSVTPMKKHCANLSRRLSLLLPMLEEIRDNQESSSEVVNALLSVKQSLLHAKDLLSFVSHVSKIYLVLERDQVMVKFQKVTSLLEQALSIIPYENLEISDELKEQVELVLVQLRRSLGKRGGDVYDDELYKDVLSLYSGRGSVMESDMVRRVAEKLQLMTITDLTQESLALLDMVSSSGGDDPGESFEKMSMVLKKIKDFVQTYNPNLDDAPLRLKSSLPKSRDDDRDMLIPPEEFRCPISLELMTDPVIVSSGQTYERECIKKWLEGGHLTCPKTQETLTSDIMTPNYVLRSLIAQWCESNGIEPPKRPNISQPSSKASSSSSAPDDEHNKIEELLLKLTSQQPEDRRSAAGEIRLLAKQNNHNRVAIAASGAIPLLVNLLTISNDSRTQEHAVTSILNLSICQENKGKIVYSSGAVPGIVHVLQKGSMEARENAAATLFSLSVIDENKVTIGAAGAIPPLVTLLSEGSQRGKKDAATALFNLCIFQGNKGKAVRAGLVPVLMRLLTEPESGMVDESLSILAILSSHPDGKSEVGAADAVPVLVDFIRSGSPRNKENSAAVLVHLCSWNQQHLIEAQKLGIMDLLIEMAENGTDRGKRKAAQLLNRFSRFNDQQKQHSGLGLEDQISLI

binding [2]: no binding
B2: PUB12 (yeast two-hybrid fusion) (enzyme, UniProt Q9ZV31 1-654)
chain: B1 chain
